In article PMC11245519, “Ubiquitous purine sensor modulates diverse signal transduction pathways in bacteria” (Nature Communications, 2024):

System: R11 (WP_162024566-LBD)
Experiment: Microcalorimetric titration (ITC) of the R11 LBD with ligands
Set-up: species or system Lentimonas sp. CC4
Details: One binding site model, * = hyperbolic curve

Structure (SMILES)	N value, R11
Nc1ncnc2[nH]cnc12 [Adenine]	0.22
O=c1[nH]cnc2c1ncn2[C@@H]1O[C@H](CO)[C@@H](O)[C@H]1O [Inosine]	0.16
Cc1c[nH]c(=O)[nH]c1=O [Thymine]	0.19
